Two substances from paper PMC3459986 can be followed below.

By UniProt entry, the sequences of proteins in these tests, tags left out.
UniProt P51532: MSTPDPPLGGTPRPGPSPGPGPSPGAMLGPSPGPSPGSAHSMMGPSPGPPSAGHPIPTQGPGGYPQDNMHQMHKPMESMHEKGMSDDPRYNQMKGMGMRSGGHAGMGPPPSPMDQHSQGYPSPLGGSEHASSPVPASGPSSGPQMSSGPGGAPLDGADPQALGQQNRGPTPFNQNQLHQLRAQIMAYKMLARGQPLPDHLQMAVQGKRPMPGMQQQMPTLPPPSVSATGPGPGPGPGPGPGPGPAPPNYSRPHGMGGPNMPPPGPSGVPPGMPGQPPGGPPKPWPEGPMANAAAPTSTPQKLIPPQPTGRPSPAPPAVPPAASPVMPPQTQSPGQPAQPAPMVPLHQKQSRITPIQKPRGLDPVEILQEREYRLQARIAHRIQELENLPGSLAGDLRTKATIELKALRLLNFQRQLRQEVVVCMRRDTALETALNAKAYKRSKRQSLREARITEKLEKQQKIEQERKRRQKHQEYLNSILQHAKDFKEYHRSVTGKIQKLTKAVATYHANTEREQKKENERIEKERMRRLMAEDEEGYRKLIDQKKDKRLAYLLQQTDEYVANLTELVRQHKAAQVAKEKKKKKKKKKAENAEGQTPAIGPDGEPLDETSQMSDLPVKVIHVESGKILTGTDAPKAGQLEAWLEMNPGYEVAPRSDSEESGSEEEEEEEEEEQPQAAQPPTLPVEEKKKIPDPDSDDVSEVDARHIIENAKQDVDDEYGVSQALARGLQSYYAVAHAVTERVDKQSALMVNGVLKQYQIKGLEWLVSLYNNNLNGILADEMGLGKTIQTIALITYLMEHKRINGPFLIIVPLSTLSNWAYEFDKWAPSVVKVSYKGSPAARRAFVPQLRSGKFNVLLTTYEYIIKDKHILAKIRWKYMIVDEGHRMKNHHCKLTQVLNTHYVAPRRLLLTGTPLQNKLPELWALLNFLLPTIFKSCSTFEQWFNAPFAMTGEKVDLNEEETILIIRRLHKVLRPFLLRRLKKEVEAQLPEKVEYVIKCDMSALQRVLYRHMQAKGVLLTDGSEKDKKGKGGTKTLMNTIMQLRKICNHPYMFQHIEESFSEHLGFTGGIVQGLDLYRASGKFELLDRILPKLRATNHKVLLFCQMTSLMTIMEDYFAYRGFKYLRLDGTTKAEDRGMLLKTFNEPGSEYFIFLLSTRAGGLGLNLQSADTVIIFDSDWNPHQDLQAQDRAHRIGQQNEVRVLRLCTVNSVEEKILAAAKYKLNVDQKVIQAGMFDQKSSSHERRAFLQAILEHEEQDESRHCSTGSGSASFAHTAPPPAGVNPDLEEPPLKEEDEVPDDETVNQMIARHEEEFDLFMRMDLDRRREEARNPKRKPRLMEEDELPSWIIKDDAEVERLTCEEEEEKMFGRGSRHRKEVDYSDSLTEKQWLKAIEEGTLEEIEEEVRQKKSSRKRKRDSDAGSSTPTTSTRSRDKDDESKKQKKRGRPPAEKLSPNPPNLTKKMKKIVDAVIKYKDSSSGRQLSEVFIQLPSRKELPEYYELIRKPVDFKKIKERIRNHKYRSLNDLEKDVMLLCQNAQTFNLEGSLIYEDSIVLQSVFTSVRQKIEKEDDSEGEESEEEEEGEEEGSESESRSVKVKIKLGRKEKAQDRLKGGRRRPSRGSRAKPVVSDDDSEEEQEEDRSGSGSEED
UniProt O15550: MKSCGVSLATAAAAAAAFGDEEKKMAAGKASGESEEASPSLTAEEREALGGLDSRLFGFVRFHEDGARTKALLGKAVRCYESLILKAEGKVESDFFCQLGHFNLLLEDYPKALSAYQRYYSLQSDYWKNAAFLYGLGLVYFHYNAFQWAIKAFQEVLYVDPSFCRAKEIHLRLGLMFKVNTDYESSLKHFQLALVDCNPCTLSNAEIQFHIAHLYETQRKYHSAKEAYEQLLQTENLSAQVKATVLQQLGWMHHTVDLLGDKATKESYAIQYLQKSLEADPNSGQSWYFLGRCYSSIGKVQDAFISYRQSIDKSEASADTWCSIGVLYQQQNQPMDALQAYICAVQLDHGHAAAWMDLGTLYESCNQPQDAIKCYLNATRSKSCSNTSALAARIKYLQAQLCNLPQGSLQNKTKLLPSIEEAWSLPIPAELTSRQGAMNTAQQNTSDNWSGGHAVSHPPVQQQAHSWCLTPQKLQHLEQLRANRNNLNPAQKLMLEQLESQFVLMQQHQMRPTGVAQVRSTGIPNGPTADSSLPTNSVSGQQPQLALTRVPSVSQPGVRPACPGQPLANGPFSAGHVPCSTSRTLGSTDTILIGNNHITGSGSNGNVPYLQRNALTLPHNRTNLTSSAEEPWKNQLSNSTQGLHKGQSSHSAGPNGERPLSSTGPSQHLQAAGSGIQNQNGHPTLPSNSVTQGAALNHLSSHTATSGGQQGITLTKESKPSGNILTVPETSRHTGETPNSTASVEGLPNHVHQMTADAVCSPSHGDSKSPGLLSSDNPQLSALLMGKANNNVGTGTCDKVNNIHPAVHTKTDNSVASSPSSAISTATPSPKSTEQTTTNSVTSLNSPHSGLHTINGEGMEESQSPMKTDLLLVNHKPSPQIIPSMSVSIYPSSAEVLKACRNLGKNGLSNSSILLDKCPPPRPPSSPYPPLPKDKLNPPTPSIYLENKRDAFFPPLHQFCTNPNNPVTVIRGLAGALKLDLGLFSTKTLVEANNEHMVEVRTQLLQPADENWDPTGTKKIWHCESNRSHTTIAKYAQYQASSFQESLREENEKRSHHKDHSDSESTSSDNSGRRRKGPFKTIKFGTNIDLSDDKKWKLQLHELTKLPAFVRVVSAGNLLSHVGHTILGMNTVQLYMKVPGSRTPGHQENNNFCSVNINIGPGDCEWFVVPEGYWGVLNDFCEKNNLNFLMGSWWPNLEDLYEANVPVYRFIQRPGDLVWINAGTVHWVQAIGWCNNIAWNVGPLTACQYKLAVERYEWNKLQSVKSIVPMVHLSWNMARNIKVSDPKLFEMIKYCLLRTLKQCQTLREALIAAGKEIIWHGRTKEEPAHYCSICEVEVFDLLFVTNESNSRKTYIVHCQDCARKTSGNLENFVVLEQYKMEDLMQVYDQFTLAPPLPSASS
UniProt O14607: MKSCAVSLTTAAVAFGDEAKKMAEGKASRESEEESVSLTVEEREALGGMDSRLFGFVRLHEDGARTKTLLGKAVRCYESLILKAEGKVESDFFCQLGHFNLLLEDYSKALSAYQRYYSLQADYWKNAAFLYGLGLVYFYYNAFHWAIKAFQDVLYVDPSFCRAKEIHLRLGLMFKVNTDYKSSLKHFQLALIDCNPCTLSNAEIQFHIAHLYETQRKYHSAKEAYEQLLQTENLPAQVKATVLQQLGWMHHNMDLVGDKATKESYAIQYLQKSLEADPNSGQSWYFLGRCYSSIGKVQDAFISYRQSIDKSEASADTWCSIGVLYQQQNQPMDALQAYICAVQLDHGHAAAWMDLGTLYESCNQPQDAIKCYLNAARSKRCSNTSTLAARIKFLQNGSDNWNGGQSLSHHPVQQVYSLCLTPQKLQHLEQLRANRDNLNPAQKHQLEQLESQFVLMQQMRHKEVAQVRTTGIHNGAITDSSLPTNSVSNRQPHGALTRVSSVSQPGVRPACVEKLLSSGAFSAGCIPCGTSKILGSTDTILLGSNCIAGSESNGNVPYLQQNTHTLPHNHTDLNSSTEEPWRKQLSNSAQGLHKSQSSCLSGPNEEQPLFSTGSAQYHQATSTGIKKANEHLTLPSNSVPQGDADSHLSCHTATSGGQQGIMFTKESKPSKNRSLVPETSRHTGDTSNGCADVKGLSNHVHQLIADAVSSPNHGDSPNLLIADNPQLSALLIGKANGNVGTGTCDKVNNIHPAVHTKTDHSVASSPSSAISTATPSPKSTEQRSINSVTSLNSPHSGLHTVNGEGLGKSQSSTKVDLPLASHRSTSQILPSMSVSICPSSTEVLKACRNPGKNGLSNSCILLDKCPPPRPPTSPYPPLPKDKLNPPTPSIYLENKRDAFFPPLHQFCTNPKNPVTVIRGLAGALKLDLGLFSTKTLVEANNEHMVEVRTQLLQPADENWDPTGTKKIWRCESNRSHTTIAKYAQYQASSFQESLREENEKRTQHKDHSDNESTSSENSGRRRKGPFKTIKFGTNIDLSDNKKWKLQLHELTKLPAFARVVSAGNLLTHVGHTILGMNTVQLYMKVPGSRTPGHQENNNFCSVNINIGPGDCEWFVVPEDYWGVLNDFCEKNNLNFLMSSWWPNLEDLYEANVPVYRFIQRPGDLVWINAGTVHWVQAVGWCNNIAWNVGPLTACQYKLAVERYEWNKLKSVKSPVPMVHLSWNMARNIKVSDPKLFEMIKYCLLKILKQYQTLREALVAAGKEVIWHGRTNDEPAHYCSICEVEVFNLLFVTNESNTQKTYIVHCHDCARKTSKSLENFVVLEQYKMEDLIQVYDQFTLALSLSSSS
UniProt Q15291: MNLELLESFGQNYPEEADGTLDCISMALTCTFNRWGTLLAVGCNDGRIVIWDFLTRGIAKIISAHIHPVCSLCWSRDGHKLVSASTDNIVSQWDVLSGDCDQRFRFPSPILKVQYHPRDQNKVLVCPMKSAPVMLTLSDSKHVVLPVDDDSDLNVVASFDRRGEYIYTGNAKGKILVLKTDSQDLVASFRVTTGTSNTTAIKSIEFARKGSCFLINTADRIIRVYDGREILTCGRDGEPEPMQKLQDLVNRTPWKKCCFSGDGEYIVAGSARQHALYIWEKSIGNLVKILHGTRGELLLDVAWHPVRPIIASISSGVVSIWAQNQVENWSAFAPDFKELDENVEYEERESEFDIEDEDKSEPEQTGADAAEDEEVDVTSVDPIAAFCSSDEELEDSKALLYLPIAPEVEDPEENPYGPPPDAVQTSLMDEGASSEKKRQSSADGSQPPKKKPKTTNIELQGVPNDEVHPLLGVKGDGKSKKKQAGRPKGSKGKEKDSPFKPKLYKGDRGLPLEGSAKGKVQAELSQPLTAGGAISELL

The target in one test is Flag tagged BRG1 (UniProt P51532). Kind of test: co-IP; HEK293T co-transfected with both tagged constructs; immunoprecipitation with 50 µl Flag beads (Sigma A2220) in buffer A from 500 µg lysate (1 mg for UTY-NKX2–5); blot with anti-HA or anti-Myc; Flag vector as negative control.
In another test the target is T1, Flag tagged SRF (UniProt P11831).
T1 sequence: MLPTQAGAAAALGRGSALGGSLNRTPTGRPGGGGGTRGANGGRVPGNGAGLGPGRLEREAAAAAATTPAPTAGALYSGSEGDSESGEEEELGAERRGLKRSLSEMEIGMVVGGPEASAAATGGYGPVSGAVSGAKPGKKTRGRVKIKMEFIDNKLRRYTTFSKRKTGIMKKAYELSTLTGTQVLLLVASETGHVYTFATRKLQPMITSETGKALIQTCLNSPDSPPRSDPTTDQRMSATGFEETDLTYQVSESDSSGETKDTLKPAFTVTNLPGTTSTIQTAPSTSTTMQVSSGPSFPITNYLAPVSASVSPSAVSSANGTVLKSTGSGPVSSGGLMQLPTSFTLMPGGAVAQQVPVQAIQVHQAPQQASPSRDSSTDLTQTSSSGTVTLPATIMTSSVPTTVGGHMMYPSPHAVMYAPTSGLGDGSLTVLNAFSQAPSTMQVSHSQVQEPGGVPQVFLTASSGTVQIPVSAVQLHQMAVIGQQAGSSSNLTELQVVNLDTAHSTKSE
The description is as above.

In another test the target is T2, Flag tagged TBX5 (UniProt Q99593).
T2 sequence: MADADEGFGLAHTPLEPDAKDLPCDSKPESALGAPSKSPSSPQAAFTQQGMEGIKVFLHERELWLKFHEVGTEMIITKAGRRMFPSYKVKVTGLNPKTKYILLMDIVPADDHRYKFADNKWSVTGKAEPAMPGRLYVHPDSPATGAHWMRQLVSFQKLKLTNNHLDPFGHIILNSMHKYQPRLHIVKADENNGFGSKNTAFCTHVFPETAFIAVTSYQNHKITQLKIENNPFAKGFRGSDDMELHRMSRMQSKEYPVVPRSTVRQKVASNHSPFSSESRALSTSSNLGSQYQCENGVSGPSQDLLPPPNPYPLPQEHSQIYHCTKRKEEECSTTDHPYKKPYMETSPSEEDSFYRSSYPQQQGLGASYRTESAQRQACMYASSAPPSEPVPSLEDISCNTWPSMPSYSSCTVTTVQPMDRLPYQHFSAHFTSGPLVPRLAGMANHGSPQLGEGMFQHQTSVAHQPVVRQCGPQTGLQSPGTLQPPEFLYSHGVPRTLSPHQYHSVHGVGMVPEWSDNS
Described as above.

The target in a further test is Flag-Human UTX (human) (UniProt O15550). Kind of test: co-IP; HEK293T transfected with the Flag-tagged construct; immunoprecipitation with 50 µl Flag beads (Sigma A2220) in buffer A from 500 µg lysate; endogenous RBBP5 detected with anti-RBBP5; Flag vector as negative control.
The target of the next test is Flag-Human UTY (human) (UniProt O14607). Described as above.

These are yes or no findings as the source states them, for the method shown. In cells and extracts the contact can be indirect. Some entries that bind do so weakly or less than the wild type. For some assays here: Where a sequence is shown, tags or fusion partners need not be part of it.

With Myc-UTY (from UniProt O14607 1-1347), the binding result with Flag tagged BRG1, in the test with Flag tagged SRF and in the test with Flag tagged TBX5 was “binds” in each case.

For RBBP5 (from UniProt Q15291 1-538), the binding entry in the test with Flag-Human UTX (human) and in the test with Flag-Human UTY (human) was “binds” in each case.
